These are literature values, as cited in US7528175B2, “Method of treating airway diseases with beta-adrenergic inverse agonists” (Inverseon, Inc., priority 2005, dated 2009).

The conditions of the data set: cited from earlier work.

For the compound `CC(C)[N+]1(C)[C@@H]2CC[C@H]1C[C@@H](OC(=O)C(CO)c1ccccc1)C2` (some centres unmarked) [Ipratropium bromide], the “time of peak plasma concentrations” value (after oral intake) was 3 h.
Regarding `CN1[C@@H]2CC[C@H]1C[C@@H](OC(=O)C(CO)c1ccccc1)C2` (some centres unmarked) [atropine], the systemic absorption result (after inhalation) was “nearly complete”.
